# Data taken from patent US20240084305A1, “MODULATORS OF CELL PROLIFERATION AND USES THEREOF” (Kumquat Biosciences Inc., priority 2020, published 2024).
# For at least one compound, name, drawing or mass did not settle the structure. Some of these results come from one statement about several compounds together.
# Tested on: A427, ASPC1 and Ls513 cancer cell lines (KRAS G12D mutation)
# Experiment: cell growth inhibition in 3D suspension culture after lentiviral shRNA KRAS knockdown plus inhibitor, Bliss independence model
# Type: cell-based
# Conditions: for cell growth inhibition: single agent; for degree of synergy of cell growth inhibition (excess over Bliss): all cell lines tested
# Text: This study explores the inhibition of a variety types (e.g., Kras G12D driven tumor cells) of cancer cells using a combination of nucleic-acid based Kras12D inhibitor and SOS inhibitor. Cell lines utilized include A427, a non-small cell lung cancer (NSCLC), ASPC1, a pancreatic cancer, and Ls513, colorectal cancer cell line. All three cell lines contain a KRAS G12D mutation. The cancer cell lines were adherently cultured in vitro and transduced with lentiviral particles packaged with shRNAs targeting either KRAS or negative control gene Luciferase.
# Amphotropic lentiviruses were produced by the co-transfection of 293FT cells and were packaged using the ViraPower lentiviral expression system (ThermoFisher Scientific). Lentiviral shRNA clones targeting luciferase (as sh-Ctrl) and KRAS were obtained from Sigma in the MISSION pLKO.1-puro vector with clone IDs as follows: shKRAS #1: TRCN0000033262, NM_033360.2-509s1c1, shKRAS #2: TRCN0000033260, NM_033360.2-407s1c1, and the Luciferase shRNA control plasmid DNA (Cat #SHC007, Sigma). Viral supernatants were filtered through a 0.45 µm filter and supplemented with […] of polybrene (Sigma) and added to 70% confluent cells pre-plated in six-well dishes. Plates were spinfected for 1 h under 600×g at 37° C. centrifugation. Cells were subsequently washed with PBS and allowed to rest 48 hours in fresh culture media at 37° C. Next, cells were reseeded as 3D suspensions (ultra-low adherent plates) into 384 well plates in RPMI medium containing 10% FBS. Approximately 24 hrs later, 10 uM SOS inhibitor as described herein or DMSO (as negative control) was added to the cell cultures for a period of about 5 days. […] The degree of synergy for the combination across cell lines was calculated by using the Bliss independence model. […] The greater the departure from Bliss indicates more profound synergy: <0 is no synergism, 0.05-0.1 is mild synergy, 0.1-0.2 moderate synergy, and >0.2 is robust synergy.
# Amphotropic lentiviruses were produced in the same manner as described in the preceding Example 6. 1 uM SHP2 inhibitor as described herein or DMSO (as negative control) was added to the cell cultures for a period of about 5 days. […] The degree of synergy for the combination across cell lines was calculated by using the Bliss independence model. […]
# Amphotropic lentiviruses were produced in the same manner as described in the preceding Example 6. […] The degree of synergy for the combination across cell lines was calculated by using the Bliss independence model as exemplified in the preceding Example 6.
# Amphotropic lentiviruses were produced in the same manner as described in the preceding Example 6. […] The degree of synergy for the combination across cell lines was calculated by using the Bliss independence model as exemplified in the preceding Example 6. […]
smiles,measurement,setting,value
Cc1nc(NC(=O)N2CCC[C@H]2C(N)=O)sc1-c1ccnc(C(C)(C)C(F)(F)F)c1 [BYL719],cell growth inhibition,0.3 uM PI3K-alpha inhibitor (BYL719),< 50%
"CC(=O)Nc1cccc(-n2c(=O)n(C3CC3)c(=O)c3c(Nc4ccc(I)cc4F)n(C)c(=O)c(C)c32)c1 [Trametinib, trametinib]",degree of synergy of cell growth inhibition (excess over Bliss),"3 nM Trametinib (MEK inhibitor) in combination with nucleic-acid based Kras12D inhibitor, about 5 days",moderate to robust
CC(=O)c1c(C)c2cnc(Nc3ccc(N4CCNCC4)cn3)nc2n(C2CCCC2)c1=O [palbociclib],degree of synergy of cell growth inhibition (excess over Bliss),"0.3 uM CDK4/6 inhibitor (Palbociclib) in combination with nucleic-acid based Kras12D inhibitor, 5 days",mild to robust
same,cell growth inhibition,0.3 uM CDK4/6 inhibitor (Palbociclib),< 50%
